In patent publication US11779597B2, “Method of treating Parkinson's and other neurodegenerative diseases” (Vector Vitale IP LLC, priority 2019, dated 2023):
Marks after values point to notes of the source that are not given here. A unit is not stated for every read-out.

Columns and labels:
Type in all cases: in vivo
[1] = system: LPS rat models of Parkinson's disease; assay: Open field test; conditions: SO + ^64Zn-asp, Gr. III
From the text: Method. The open field test is a technique commonly used to measure locomotor activity of rodents and their level of exploratory activity in an unfamiliar environment, as well as assess the levels of fear of novelty, anxiety or an increase in orientation response in rodents (Denenberg V H, et al., Physiology and Behavior, 1969; 4:403-406; Pellow S et al., J Neurosci Methods. 1985; 14(3):149-67). Behavioral patterns measured in the open field test include: distance travelled in the outer and inner perimeter, duration of time spent in the outer and inner perimeter, the total distance travelled and a percentage of the number of internal squares crossed compared to the total number of squares.
The open field was a square chamber 100×100 cm in size and with walls 60 cm high. The chamber was illuminated by two LED bulbs, 60 watts each, hanging at a height of 2 m. An IP camera was used to record the rodent movement. The MATLAB-based software was used to analyze the parameters. The statistical analysis was performed using GraphPad Prism. Significance was set at <0.005. The data collected from the open field were analyzed using One-way ANOVA (Tukey test or Dunnett test) and Unpaired t-test or Mann-Whitney.
Data analysis and interpretation. A novel environment in which an animal finds itself evokes conflict between fear and a desire to explore this environment. […]

[2] = system: circulating monocytes and granulocytes; assay: Functional and phenotypic properties of circulating phagocytes in LPS rat models; conditions: sham-operated animals
Description: (§1) On the 1st day of the experiment, rats were either operated to model hemi-parkinsonism or sham operated. From the 9th to the 18th day of the experiment, the animals were injected either deuterium-depleted water or the test substance, according to their allocation into groups, for 10 days. On the 8th day of the experiment (before initiation of treatment—apomorphine test I) and on the 21st day of the experiment (after the end of administering the test substance —apomorphine test II) the animals underwent an apomorphine test to analyze the development of hemi-parkinsonism which correlates with the number of destroyed dopaminergic neurons. In addition, a follow-up analysis of fecal water content was carried out, i.e., before the start of treatment on the 8th day after the operation, as well as on the 21st (after the end of treatment) and the 28th day (before autopsy). On the 24th day of the experiment, behavioral tests were carried out in all groups. All animals were weighed before autopsy. During autopsy, ⅔ of animals from each group were sacrificed by cervical dislocation and brain and blood samples were collected for further biochemical and immunological tests. ⅓ of the animals were used for further immunohistochemical studies of the brain; for this purpose, under anesthesia, a procedure of fast, controlled and uniform fixation of the whole body of the animal was performed using 4% paraformaldehyde perfused through the heart of the rat to obtain the best preservation of the brain architecture for immunohistochemistry. Gage G J, et al., J Vis Exp. 2012 Jul. 30; (65).
To assess the anti-inflammatory and immunomodulating effects of the test substance, microglia and peritoneal macrophages were isolated. Phenotypic and functional features of peripheral blood phagocytes were evaluated without their fractioning (using whole blood). […]
Phagocytic activity of microglia, peritoneal macrophages and peripheral blood phagocytes was analyzed on a flow cytometer using FITC-labeled S. aureus Wood 46 cells as an object of phagocytosis. […]
Oxidative metabolism of phagocytes of various localization was analyzed by flow cytometry using the cell-permeant 2′7′-dichlorodihydrofluorescein-diacetate (DHP) (carboxy-H2DCFDA, Invitrogen, USA) which is converted by intracellular esterases to the nonfluorescent membrane-impermeable carboxy-H2DCF form.
The phenotypic profile of phagocytes of various localization was characterized by the expression of markers of functional maturity and metabolic polarization (CD206, CD80 and CD86), which was determined by flow cytometry and the use of monoclonal antibodies of appropriate specificity marked with fluorescent dyes (Abcam, Becton Dickinson).

[3] = system: LPS rat models of Parkinson's disease; assay: Elevated plus maze; conditions: SO + ^64Zn-asp, Group III
From the text: Method. The elevated plus maze is a widely used behavioral assay for rodents that makes it possible to assess sedative or anxiogenic effects of agents and to define mechanisms underlying anxiety-related behavior, as well as to evaluate the motor activity of rats and levels of their exploratory activity that may correlate with the data collected in the open field test. Campos A C, et al., Braz J Psychiatry. 2013; 35 Suppl 2:S101-11. doi: 10.1590/1516-4446-2013-1139; Braun A A, et al., Neurobiol Learn Mem. 2012; 97(4):402-8. doi: 10.1016/j.nlm.2012.03.004). Behavior was assessed according to the following main parameters: the total distance travelled, the number of entries into each arm, the time spent in each arm, the total number of entries and percent of entries. […] Throughout the experiment, animals had free access to food and water. Before starting measurements, animals were given time to adapt to new an environment to reduce stress.
The entire apparatus was elevated 50 cm above the floor. The central part of the junction was a 10 cm square center region where an animal was started facing an open arm. The apparatus was illuminated by two LED bulbs, 60 watts each, hanging at a height of 2 m. An IP camera was used to record the location of rats and scoring was completed later using the MATLAB-based software. The statistical analysis was performed using GraphPad Prism. Significance was set at <0.005. The data collected from the open field were analyzed using One-way ANOVA (Tukey test or Dunnett test) and Unpaired t-test or Mann-Whitney.
Data analysis and interpretation. The test is based on the natural aversion of rats for open areas and their preference for closed areas of the apparatus. The levels of anxiety in animals are assessed as the total time spent in the open and closed arms. Animals that spend more time in the open arms have lower levels of anxiety compared to animals that prefer closed arms. In addition, like in an open field test, a novel environment in which an animal finds itself evokes conflict between fear and a desire to explore this environment. Therefore, the data collected from these two tests may correlate in the distance travelled and the time spent in the outer and inner perimeter. It is considered normal if during a 5-minute test, animals spend most of their time in the closed arms but also make a few entries to the open arms to explore. Accordingly, an increase in open arm entries is interpreted as a decreased anxiety in the animal. FIG. 51A and FIG. 51B show an example of analysis of a rat trajectory in the experimental arena.
On the 1st day of the experiment, rats were either operated to model hemi-parkinsonism or sham operated. From the 9th to the 18th day of the experiment, the animals were injected either deuterium-depleted water or the test substance, according to their allocation into groups, for 10 days. On the 8th day of the experiment (before initiation of treatment—apomorphine test I) and on the 21st day of the experiment (after the end of administering the test substance —apomorphine test II) the animals underwent an apomorphine test to analyze the development of hemi-parkinsonism which correlates with the number of destroyed dopaminergic neurons. In addition, a follow-up analysis of fecal water content was carried out, i.e., before the start of treatment on the 8th day after the operation, as well as on the 21st (after the end of treatment) and the 28th day (before autopsy). On the 24th day of the experiment, behavioral tests were carried out in all groups. All animals were weighed before autopsy.

[4] = Body weight in LPS rat models of parkinsonism; conditions: sham-operated
Description: as §1

^64Zn-enriched zinc aspartate [^64Zne-asp]
Number of defecations [1]: 5.375 ± 2.875
Number of groomings [1]: 5.75 ± 2.121
expression of phenotypic markers (CD80/86) by circulating phagocytes [2]: decrease
number of phagocytic cells in the peripheral blood [2]: did not have any effect
oxidative metabolism of circulating phagocytes [2]: did not have any significant effect
phagocytic activity of monocytes and granulocytes in the peripheral blood [2]: did not have any effect
Number of entries into closed arms [3]: 5.875 ± 5.139
Number of entries into open arms [3]: 5.375 ± 5.317
Time spent in closed arms [3]: 256.1 ± 27.69 s
Time spent in open arms [3]: 14 ± 14.12 s
Total distance travelled, cm [3]: 317.1 ± 138.4 cm
Total number of entries [3]: 12.13 ± 10.02
body weight ([4]; 1st day): 185.91 ± 19.90
body weight ([4]; 28th day): 243.50 ± 27.52
body weight changes, % ([4]; between 1st and 28th day): 30** %
